Experimental findings from PMC2204056 are described below.

This assay addresses T1, K+ channel regulator protein 1 (KCR1) with three N-terminal FLAG epitopes (rat) (UniProt O88788).
T1 sequence: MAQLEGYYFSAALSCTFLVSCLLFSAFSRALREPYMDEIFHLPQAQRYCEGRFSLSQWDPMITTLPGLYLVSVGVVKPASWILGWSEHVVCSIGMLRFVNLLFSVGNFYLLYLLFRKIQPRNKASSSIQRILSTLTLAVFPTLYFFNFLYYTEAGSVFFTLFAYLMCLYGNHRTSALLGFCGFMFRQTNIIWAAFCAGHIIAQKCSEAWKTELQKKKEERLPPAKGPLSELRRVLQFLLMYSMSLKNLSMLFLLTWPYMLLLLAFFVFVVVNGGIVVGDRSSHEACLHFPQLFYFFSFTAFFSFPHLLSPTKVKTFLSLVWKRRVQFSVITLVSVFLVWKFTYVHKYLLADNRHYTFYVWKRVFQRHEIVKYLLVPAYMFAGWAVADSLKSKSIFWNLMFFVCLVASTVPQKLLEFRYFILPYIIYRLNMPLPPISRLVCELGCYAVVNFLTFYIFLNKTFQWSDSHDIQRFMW
Kind of assay: co-IP; CHO cells cotransfected with HCN2 and pCFLAG^3-KCR1; 700 µg of extract (50 mM Tris pH 7.4, 150 mM NaCl, 0.25% Triton X-100, 5 mM NaF) immunoprecipitated with anti-FLAG-M2 Sepharose, Western blot with anti-HCN2 antibody; controls: pCFLAG^3-KCR1 alone, HCN2 plus empty FLAG vector, mock precipitation with A-Sepharose. (Immunoblotting shows a protein as a band on a membrane.)

No constants are given. Whether binding was seen depends on the method and setting. In cells and extracts the contact can be indirect. Some results given as binding are weak or reduced against the parent protein; the word gives no strength. Sequences can lack the tags named with a protein.

B1: HCN2 (hyperpolarization-activated, cyclic nucleotide-gated ion channel subunit 2) (protein, UniProt O88703 1-863)
chain: MDARGGGGRPGDSPGTTPAPGPPPPPPPPAPPQPQPPPAPPPNPTTPSHPESADEPGPRARLCSRDSACTPGAAKGGANGECGRGEPQCSPEGPARGPKVSFSCRGAASGPSAAEEAGSEEAGPAGEPRGSQASFLQRQFGALLQPGVNKFSLRMFGSQKAVEREQERVKSAGAWIIHPYSDFRFYWDFTMLLFMVGNLIIIPVGITFFKDETTAPWIVFNVVSDTFFLMDLVLNFRTGIVIEDNTEIILDPEKIKKKYLRTWFVVDFVSSIPVDYIFLIVEKGIDSEVYKTARALRIVRFTKILSLLRLLRLSRLIRYIHQWEEIFHMTYDLASAVMRICNLISMMLLLCHWDGCLQFLVPMLQDFPSDCWVSINNMVNHSWSELYSFALFKAMSHMLCIGYGRQAPESMTDIWLTMLSMIVGATCYAMFIGHATALIQSLDSSRRQYQEKYKQVEQYMSFHKLPADFRQKIHDYYEHRYQGKMFDEDSILGELNGPLREEIVNFNCRKLVASMPLFANADPNFVTAMLTKLKFEVFQPGDYIIREGTIGKKMYFIQHGVVSVLTKGNKEMKLSDGSYFGEICLLTRGRRTASVRADTYCRLYSLSVDNFNEVLEEYPMMRRAFETVAIDRLDRIGKKNSILLHKVQHDLSSGVFNNQENAIIQEIVKYDREMVQQAELGQRVGLFPPPPPPQVTSAIATLQQAVAMSFCPQVARPLVGPLALGSPRLVRRAPPGPLPPAASPGPPAASPPAAPSSPRAPRTSPYGVPGSPATRVGPALPARRLSRASRPLSASQPSLPHGVPAPSPAASARPASSSTPRLGPAPTARTAAPSPDRRDSASPGAASGLDPLDSARSRLSSNL
B1: the binding entry is on record as “binds”.
